Results: US20080194545A1, “ANTIMICROBIAL COMPOSITIONS AND METHODS OF USE” (TRIUS THERAPEUTICS, priority 2007, published 2008)
Some results were stated once for a whole list of compounds, not compound by compound.

The chains behind the UniProt entries cited, without tags or fusion partners. Where a name states a change or a piece, a line headed by the entry shows the natural chain unless it says otherwise.
UniProt Q5HII6: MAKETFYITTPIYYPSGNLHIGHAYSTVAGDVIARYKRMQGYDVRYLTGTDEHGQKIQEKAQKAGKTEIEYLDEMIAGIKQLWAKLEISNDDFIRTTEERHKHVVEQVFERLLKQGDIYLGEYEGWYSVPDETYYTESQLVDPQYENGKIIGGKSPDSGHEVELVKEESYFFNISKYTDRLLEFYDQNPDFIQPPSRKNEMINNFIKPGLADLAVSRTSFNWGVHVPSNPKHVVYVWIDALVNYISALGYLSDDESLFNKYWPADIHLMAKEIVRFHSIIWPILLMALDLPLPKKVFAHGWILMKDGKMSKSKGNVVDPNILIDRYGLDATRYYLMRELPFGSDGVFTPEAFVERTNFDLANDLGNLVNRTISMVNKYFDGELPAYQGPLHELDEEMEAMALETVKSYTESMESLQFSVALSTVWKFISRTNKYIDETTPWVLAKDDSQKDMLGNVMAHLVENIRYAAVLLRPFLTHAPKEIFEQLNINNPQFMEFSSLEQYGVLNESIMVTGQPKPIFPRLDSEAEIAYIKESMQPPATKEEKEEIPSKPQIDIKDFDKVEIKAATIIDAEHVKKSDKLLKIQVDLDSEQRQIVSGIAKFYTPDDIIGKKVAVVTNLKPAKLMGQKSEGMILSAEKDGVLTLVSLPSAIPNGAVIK

Each compound was assayed against S. Aureus MetRS (Staphylococcus aureus, UniProt Q5HII6) (assay: MetRS inhibition (coupling of radiolabeled methionine to tRNAMet, TCA-precipitable counts)). Conditions: purified MetRS enzyme.
Type: biochemical
From the text: The inhibition of MetRS activity may be monitored through use of in vitro bio-chemical assays through use of purified MetRS protein. Synthesis of a MetRS polypeptide can readily be accomplished through use of any of the various art-known techniques. For instance, a MetRS polypeptide can be synthesized chemically in vitro or recombinant DNA methods which are well known to those skilled in the art can be used to construct expression vectors containing MetRS coding sequences, and appropriate transcriptional/translational control signals. These methods include, for example, in vitro recombinant DNA techniques, synthetic techniques and in vivo recombination/genetic recombination. Alternatively, RNA capable of encoding target gene protein sequences can be chemically synthesized through use of synthesizers, for example.
The compounds of the present invention may also be evaluated for the ability to inhibit MetRS activity through use of known methods that measure the MetRS-dependent coupling of methionine to its cognate tRNA. In the assay, radiolabeled methionine, tRNA^Met and purified MetRS enzyme are incubated under appropriate conditions in the presence and absence of test compound and the amount of TCA-precipitable counts, which reflects the amount of methionine coupled to tRNA^Met, is determined.
Clc1ccc(Oc2cc(N3CCOCC3)nc(NCc3nc4ccccc4[nH]3)n2)c(Cl)c1 [Compound 5.01] was tested, and the IC50 was < 50 nM.
COc1ccc(Oc2cc(N3CCOCC3)nc(NNc3cc(=O)c4ccccc4[nH]3)n2)c(Cl)c1 [Compound 5.05] was tested, and the IC50 was < 50 nM.
In the case of COc1ccc(Oc2cc(N(C)C)nc(NNc3cc(=O)c4ccccc4[nH]3)n2)c(Cl)c1 [Compound 5.06], the IC50 is reported as < 50 nM.
For CC(=O)N1CCN(c2cc(Oc3ccc(Cl)cc3Cl)nc(NCc3nc4ccccc4[nH]3)n2)CC1 [Compound 5.11], the IC50 was < 50 nM.
N#CCCN1CCN(c2cc(Oc3ccc(Cl)cc3Cl)nc(NCc3nc4ccccc4[nH]3)n2)CC1 [Compound 5.12] was tested, and the IC50 was < 50 nM.
With CSc1cc(Oc2ccc(Cl)cc2Cl)nc(NCc2nc3ccccc3[nH]2)n1 [Compound 5.16] the IC50 was < 50 nM.
CS(=O)(=O)c1cc(Oc2ccc(Cl)cc2Cl)nc(NCc2nc3ccccc3[nH]2)n1 [Compound 5.17] was tested, and the IC50 was < 50 nM.
For Fc1ccc(Oc2cc(N3CCOCC3)nc(NCc3nc4ccccc4[nH]3)n2)c(Cl)c1 [Compound 5.18], the IC50 was < 50 nM.
With COc1ccc(Oc2cc(N3CCN(C(C)=O)CC3)nc(NCc3nc4ccccc4[nH]3)n2)c(Cl)c1 [Compound 5.24] the IC50 was < 50 nM.
For CC(=O)N1CCN(c2cc(Oc3ccc(F)cc3Cl)nc(NCc3nc4ccccc4[nH]3)n2)CC1 [Compound 5.25], the IC50 was < 50 nM.
With Clc1ccc(Oc2cc(N3CCCCC3)nc(NCc3nc4ccccc4[nH]3)n2)c(Cl)c1 [Compound 5.29] the IC50 was < 50 nM.
In the case of COc1ccc(Oc2cc(N3CCN(CCO)CC3)nc(NCc3nc4ccccc4[nH]3)n2)c(Cl)c1 [Compound 5.30], the IC50 is reported as < 50 nM.
For COc1ccc(Oc2cc(N3CCN(CCN(C)C)CC3)nc(NCc3nc4ccccc4[nH]3)n2)c(Cl)c1 [Compound 5.31], the IC50 was < 50 nM.
In the case of COc1ccc(Oc2cc(N3CCN(CCN)CC3)nc(NCc3nc4ccccc4[nH]3)n2)c(Cl)c1 [Compound 5.32], the IC50 is reported as < 50 nM.
In the case of OCCN1CCN(c2cc(Oc3ccc(F)cc3Cl)nc(NCc3nc4ccccc4[nH]3)n2)CC1 [Compound 5.34], the IC50 is reported as < 50 nM.
O=C1CN(c2cc(Oc3ccc4c(c3)OCO4)nc(NCc3nc4ccccc4[nH]3)n2)CCN1 [Compound 5.59] was tested, and the IC50 was < 50 nM.
With COc1ccc(Oc2cc(N3CCC(N4CCOCC4)CC3)nc(NCc3nc4ccccc4[nH]3)n2)c(Cl)c1 [Compound 5.65] the IC50 was < 50 nM.
COc1ccc(Oc2cc(N3CCCCC3CO)nc(NCc3nc4ccccc4[nH]3)n2)c(Cl)c1 (stereo not shown) [Compound 5.66] was tested, and the IC50 was < 50 nM.
With COc1ccc(Oc2cc(N3CCC(F)C3)nc(NCc3nc4ccccc4[nH]3)n2)c(Cl)c1 (stereo not shown) [Compound 5.67] the IC50 was < 50 nM.
For CCN1CCN(c2cc(Oc3ccc(OC)cc3Cl)nc(NCc3nc4ccccc4[nH]3)n2)CC1 [Compound 5.69], the IC50 was < 50 nM.
O=S(=O)(CC1CC1)C1CN(c2nc(NCc3nc4ccccc4[nH]3)cc(Oc3ccc(Cl)cc3Cl)n2)C1 [Compound 6.01] was tested, and the IC50 was < 50 nM.
In the case of COc1ccc(Oc2cc(NNc3cc(=O)c4ccccc4[nH]3)nc(N3CCOCC3)n2)c(Cl)c1 [Compound 6.05], the IC50 is reported as < 50 nM.
COc1ccc(Oc2cc(NCc3nc4cc(C)c(C)cc4[nH]3)nc(N3CCOCC3)n2)c(Cl)c1 [Compound 6.07] was tested, and the IC50 was < 50 nM.
With COc1ccc(Oc2cc(NCc3nc4ccccc4[nH]3)nc(N(C)C)n2)c(Cl)c1 [Compound 6.10] the IC50 was < 50 nM.
With Clc1ccc(Oc2cc(NCc3nc4ccccc4[nH]3)ncn2)c(Cl)c1 [Compound 6.12] the IC50 was < 50 nM.
For Fc1ccc(Oc2cc(NCc3nc4ccccc4[nH]3)nc(N3CCOCC3)n2)c(Cl)c1 [Compound 6.13], the IC50 was < 50 nM.
For CN(C)c1nc(NCc2nc3ccccc3[nH]2)cc(Oc2ccc(Cl)cc2Cl)n1 [Compound 6.14], the IC50 was < 50 nM.
In the case of Clc1ccc(Oc2cc(NCc3nc4ccccc4[nH]3)nc(N3CCOCC3)n2)c(Cl)c1 [Compound 6.15], the IC50 is reported as < 50 nM.
In the case of COc1ccc(Oc2cc(NCc3nc4ccccc4[nH]3)nc(N3CCCC3CO)n2)c(Cl)c1 (stereo not shown) [Compound 6.29], the IC50 is reported as < 50 nM.
With O=C1CN(c2nc(NCc3nc4ccccc4[nH]3)cc(Oc3ccc4c(c3)OCO4)n2)CCN1 [Compound 6.32] the IC50 was < 50 nM.
With CC(=O)N1CCN(c2nc(NCc3nc4ccccc4[nH]3)cc(Oc3ccc4c(c3)OCO4)n2)CC1 [Compound 6.34] the IC50 was < 50 nM.
In the case of COc1ccc(Oc2cc(NCc3nc4ccccc4[nH]3)nc(N3CCNC(=O)C3)n2)cc1 [Compound 6.37], the IC50 is reported as < 50 nM.
For COc1ccc(Oc2cc(NCc3nc4ccccc4[nH]3)nc(N3CCC(N4CCOCC4)CC3)n2)c(Cl)c1 [Compound 6.39], the IC50 was < 50 nM.
COc1ccc(Oc2cc(NCc3nc4ccccc4[nH]3)nc(N3CCCCC3CO)n2)c(Cl)c1 (stereo not shown) [Compound 6.40] was tested, and the IC50 was < 50 nM.
In the case of COc1ccc(Oc2cc(NCc3nc4ccccc4[nH]3)nc(N3CCC(N(C)C)CC3)n2)c(Cl)c1 [Compound 6.41], the IC50 is reported as < 50 nM.
In the case of COc1ccc(Oc2cc(NCc3nc4ccccc4[nH]3)nc(N3CCC(F)C3)n2)c(Cl)c1 (stereo not shown) [Compound 6.42], the IC50 is reported as < 50 nM.
For CCN1CCN(c2nc(NCc3nc4ccccc4[nH]3)cc(Oc3ccc(OC)cc3Cl)n2)CC1 [Compound 6.44], the IC50 was < 50 nM.
For CCS(=O)(=O)N1CCN(c2nc(NCc3nc4ccccc4[nH]3)cc(Oc3ccc(OC)cc3Cl)n2)CC1 [Compound 6.46], the IC50 was < 50 nM.
In the case of COc1ccc(Oc2cc(NCc3nc4ccccc4[nH]3)nc(N3CCCNCC3)n2)c(Cl)c1 [Compound 6.47], the IC50 is reported as < 50 nM.
In the case of COc1cc(Cl)c(Oc2cc(NCc3nc4ccccc4[nH]3)nc(N3CCCNCC3)n2)cc1OC [Compound 6.57], the IC50 is reported as < 50 nM.
In the case of COc1ccc(Oc2cc(NCc3nc4ccccc4[nH]3)nc(N3CCSCC3)n2)c(Cl)c1 [Compound 6.58], the IC50 is reported as < 50 nM.
COc1ccc(Oc2cc(NCc3nc4ccccc4[nH]3)nc(N3CCS(=O)(=O)CC3)n2)c(Cl)c1 [Compound 6.59] was tested, and the IC50 was < 50 nM.
In the case of COc1ccc(Oc2cc(NCc3nc4ccccc4[nH]3)nc(N3CCN(c4ccccn4)CC3)n2)c(Cl)c1 [Compound 6.60], the IC50 is reported as < 50 nM.
With COc1ccc(Oc2cc(NCc3nc4ccccc4[nH]3)nc(N3CCN(C(C)=O)CC3)n2)cc1OC [Compound 6.77] the IC50 was < 50 nM.
In the case of COc1ccc(Oc2cc(NCc3nc4ccccc4[nH]3)nc(N3CCNC(=O)C3)n2)cc1OC [Compound 6.78], the IC50 is reported as < 50 nM.
For COc1cc(Cl)c(Oc2cc(NCc3nc4ccccc4[nH]3)nc(N3CCN(CCO)CC3)n2)cc1OC [Compound 6.84], the IC50 was < 50 nM.
COc1cc(Cl)c(Oc2cc(NCc3nc4ccccc4[nH]3)nc(N3CCN(CCN(C)C)CC3)n2)cc1OC [Compound 6.85] was tested, and the IC50 was < 50 nM.
In the case of COc1ccc(Oc2cc(NCc3nc4ccccc4[nH]3)nc(N3CCN(c4ncccn4)CC3)n2)cc1OC [Compound 6.97], the IC50 is reported as < 50 nM.
With COc1ccc(Oc2cc(NCc3nc4ccccc4[nH]3)nc(N3CCN(c4cnccn4)CC3)n2)cc1OC [Compound 6.98] the IC50 was < 50 nM.
COc1ccnc(N2CCN(c3nc(NCc4nc5ccccc5[nH]4)cc(Oc4ccc(OC)c(OC)c4)n3)CC2)n1 [Compound 6.99] was tested, and the IC50 was < 50 nM.
COc1cccc(N2CCN(c3nc(NCc4nc5ccccc5[nH]4)cc(Oc4cc(OC)c(OC)cc4Cl)n3)CC2)n1 [Compound 6.100] was tested, and the IC50 was < 50 nM.
With COc1ccc(Oc2cc(NCc3nc4ccccc4[nH]3)nc(N3CCN(c4cnccn4)CC3)n2)c(Cl)c1 [Compound 6.101] the IC50 was < 50 nM.
COc1ccc(Oc2cc(NCc3nc4ccccc4[nH]3)nc(N3CCN(c4ncccn4)CC3)n2)c(Cl)c1 [Compound 6.102] was tested, and the IC50 was < 50 nM.
COc1ccc(Oc2cc(NCc3nc4ccccc4[nH]3)nc(N3CCN(c4nccc(OC)n4)CC3)n2)c(Cl)c1 [Compound 6.103] was tested, and the IC50 was < 50 nM.
For COc1cc(Cl)c(Oc2cc(NCc3nc4ccccc4[nH]3)nc(N3CCNC(=O)CC3)n2)cc1OC [Compound 6.104], the IC50 was < 50 nM.
For COc1cc(Cl)c(Oc2cc(NCc3nc4ccccc4[nH]3)nc(N3CCN(C(=O)C(F)(F)F)CC3)n2)cc1OC [Compound 6.106], the IC50 was < 50 nM.
In the case of COc1cc(Cl)c(Oc2cc(NCc3nc4ccccc4[nH]3)nc(N3CCN(c4ncnc5ccsc45)CC3)n2)cc1OC [Compound 6.119], the IC50 is reported as < 50 nM.
With COc1cc(Cl)c(Oc2cc(NCc3nc4ccccc4[nH]3)nc(N3CCN(c4ccc(C#N)cn4)CC3)n2)cc1OC [Compound 6.130] the IC50 was < 50 nM.
COc1cc(Cl)c(Oc2cc(NCc3nc4ccccc4[nH]3)nc(N3CCN(c4ncc(C(F)(F)F)s4)CC3)n2)cc1OC [Compound 6.131] was tested, and the IC50 was < 50 nM.
For COc1cc(Cl)c(Oc2cc(NCc3nc4ccccc4[nH]3)nc(N3CCN(C(C)c4ccccn4)CC3)n2)cc1OC (stereo not shown) [Compound 6.133], the IC50 was < 50 nM.
For COc1cc(Cl)c(Oc2cc(NCc3nc4ccccc4[nH]3)nc(N3CCN(c4nc(C)cnc4C)CC3)n2)cc1OC [Compound 6.135], the IC50 was < 50 nM.
For COc1cc(Cl)c(Oc2cc(NCc3nc4ccccc4[nH]3)nc(N3CCN(Cc4csc(C)n4)CC3)n2)cc1OC [Compound 6.137], the IC50 was < 50 nM.
COc1cc(Cl)c(Oc2cc(NCc3nc4ccccc4[nH]3)nc(N3CCC(n4cc(-c5ccccc5)cn4)CC3)n2)cc1OC [Compound 6.141] was tested, and the IC50 was < 50 nM.
COc1cc(Cl)c(Oc2cc(NCc3nc4ccccc4[nH]3)nc(N3CCC(C(C)N4CCOCC4)CC3)n2)cc1OC (stereo not shown) [Compound 6.146] was tested, and the IC50 was < 50 nM.
COc1cc(Cl)c(Oc2cc(NCc3nc4ccccc4[nH]3)nc(N3CCC(N4CCOCC4)C3)n2)cc1OC (stereo not shown) [Compound 6.147] was tested, and the IC50 was < 50 nM.
In the case of COc1cc(Cl)c(Oc2cc(NCc3nc4ccccc4[nH]3)nc(N3CCC(C(O)c4cccs4)CC3)n2)cc1OC (stereo not shown) [Compound 6.148], the IC50 is reported as < 50 nM.
With COc1cc(Cl)c(Oc2cc(NCc3nc4ccccc4[nH]3)nc(N3CCN(c4cc(N5CCOCC5)ncn4)CC3)n2)cc1OC [Compound 6.149] the IC50 was < 50 nM.
